These are yes or no findings as the source states them, for the method shown. Some entries that bind do so weakly or less than the wild type.
Target: Human Prostate-Specific Antigen (purified human PSA, Vitro Diagnostics) (human) (UniProt P07288)
Test: equimolar PSA and ACT preincubated 4 h at 37 C; complex confirmed by SDS-PAGE

By UniProt entry, the sequences of proteins in these tests, tags left out. Where a name states a change or a piece, a line headed by the entry shows the natural chain unless it says otherwise.
UniProt P07288: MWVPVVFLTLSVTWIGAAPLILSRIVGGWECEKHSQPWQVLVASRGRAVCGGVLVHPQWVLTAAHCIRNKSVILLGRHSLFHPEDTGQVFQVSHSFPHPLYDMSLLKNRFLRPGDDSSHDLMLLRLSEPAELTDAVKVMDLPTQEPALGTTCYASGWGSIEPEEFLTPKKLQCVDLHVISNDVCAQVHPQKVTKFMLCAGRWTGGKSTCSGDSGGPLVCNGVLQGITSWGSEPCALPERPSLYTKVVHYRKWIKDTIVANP

binding: binds
B1: alpha-1 antichymotrypsin (ACT, Sigma Chemical Co.) (protein, UniProt P01011 24-423, looked up)
chain: HPNSPLDEENLTQENQDRGTHVDLGLASANVDFAFSLYKQLVLKAPDKNVIFSPLSISTALAFLSLGAHNTTLTEILKGLKFNLTETSEAEIHQSFQHLLRTLNQSSDELQLSMGNAMFVKEQLSLLDRFTEDAKRLYGSEAFATDFQDSAAAKKLINDYVKNGTRGKITDLIKDLDSQTMMVLVNYIFFKAKWEMPFDPQDTHQSRFYLSKKKWVMVPMMSLHHLTIPYFRDEELSCTVVELKYTGNASALFILPDQDKMEEVEAMLLPETLKRWRDSLEFREIGELYLPKFSISRDYNLNDILLQLGIEEAFTSKADLSGITGARNLAVSQVVHKAVLDVFEEGTEASAATAVKITLLSALVETRTIVRFNRPFLMIIVPTDTQNIFFMSKVTNPKQA

Source: patent US20030012792A1
